Test results published in the supplement of paper PMC5949888.
Most values lie at the floor of the assay. Slopes are relative: functional sequences can read slightly below zero.

test system: Saccharomyces cerevisiae PS128 hsf1 delta, HSF1(1-493) fusion; test: growth estimate (transactivation domain function in HSF1 fusion, heat-shock survival) (a.u. (slope of normalised read count over time)); higher = stronger growth at 37°C, i.e. more transactivation activity; conditions: library: random library

| Substance | growth estimate |
| --- | --- |
| NGGLRCMRSLAGINDNLINN | < -0.25 |
| NGGLSVGRKWYR | -0.248 |
| NGGSSTAS | < -0.25 |
| NGHGWWSLDHWFNLYWRMTC | < -0.25 |
| NGIDYVLVLAAPEET | < -0.25 |
| NGLSRRLYGSSGVRHSR | < -0.25 |
| NGLTC | -0.126 |
| NGLTKVAGPVNHAPDGHRSS | < -0.25 |
| NGLTYFGWARWRLCRPACMY | < -0.25 |
| NGLVLGSQGSRACTRGEQAL | -0.25 |
| NGPTV | < -0.25 |
| NGRLF | < -0.25 |
| NGRSGLTSVDQLSPLIKCAT | < -0.25 |
| NGSK | < -0.25 |
| NGSRWMSSAYSPRPMASVGD | < -0.25 |
| NGSRYNRSSIFWLQASVLWP | < -0.25 |
| NGSSFSACTSVP | < -0.25 |
| NGTGMYPAPQPSSWIGKLHT | < -0.25 |
| NGTSF | < -0.25 |
| NGVADNEILKYCDWDLRRSR | < -0.25 |
| NGVKESGLRGKLDLPQRRTM | -0.176 |
| NHGLSKR | -0.245 |
| NHPAFLVSTMMDHPI | < -0.25 |
| NHQ | < -0.25 |
| NHQSVIVYVDIFRKREVFGF | -0.242 |

Taken from above:
For growth estimate, NGSK has the entry < -0.25
For growth estimate, NGTGMYPAPQPSSWIGKLHT has the entry < -0.25
For growth estimate, NGLTYFGWARWRLCRPACMY has the entry < -0.25
For growth estimate, NHQSVIVYVDIFRKREVFGF has the entry -0.242
For growth estimate, NGSSFSACTSVP has the entry < -0.25

The list goes on:

| Substance | growth estimate |
| --- | --- |
| NHRSALKRRVD | < -0.25 |
| NHSKDPVKVGLHSKAL | < -0.25 |
| NHTRGL | < -0.25 |
| NIESFCPTGTKLR | < -0.25 |
| NIGPCGLMSRIGLGTRLLRQ | < -0.25 |
| NILICCLNL | < -0.25 |
| NIMLSVTNFCVRQMAAKLGD | < -0.25 |
| NIPVCTTLGPMVANQV | -0.204 |
| NIRVR | < -0.25 |
| NITI | < -0.25 |
| NIVIVGATCDFPTQIANPPY | < -0.25 |
| NIWDVYTPRLRGRGAELVVL | < -0.25 |
| NKGETEGD | < -0.25 |
| NKPIKPSTAPRG | < -0.25 |
| NKPQVPFHTALNQRTRL | < -0.25 |
| NKTGFSTFISHIG | < -0.25 |
| NLAALVGGTGGFYSVAGDEA | < -0.25 |
| NLALTFYEKAERT | < -0.25 |
| NLATRSHNA | < -0.25 |
| NLCEVYRRGDFVSSRLYIAP | < -0.25 |
| NLGDRDKPRLRRSRSMPIRT | < -0.25 |
| NLGIRRRRLAEIGSGRDRSR | < -0.25 |
| NLGITIGGLPCEHFGS | < -0.25 |
| NLLQSLAVPRGWRGTSCDTA | < -0.25 |
| NLLRSTWLGTVRAI | < -0.25 |

| Substance | growth estimate |
| --- | --- |
| NLLSNGSAER | < -0.25 |
| NLLVLRRLM | < -0.25 |
| NLLYRARVVAGIRLGRVSLG | < -0.25 |
| NLNFLNPPQRGVEEARPVTW | -0.175 |
| NLPECRLTGLSSRYRRQAIG | < -0.25 |
| NLPPS | < -0.25 |
| NLREPQVFPYVGDDFGHSAI | < -0.25 |
| NLRGLALAG | < -0.25 |
| NLRSLLNDAIQG | < -0.25 |
| NLRTEYHLASKEAYVRFG | < -0.25 |
| NLSGTNHCA | < -0.25 |
| NLSTTDGDR | < -0.25 |
| NLTKSLQSTH | < -0.25 |
| NLVSTHDDASAEHERLVQRP | < -0.25 |
| NLYGPQV | < -0.25 |
| NMFYGGPEFASWPPEPVEFE | 0.0951 |
| NMHFPRISSPCAWSRTCPRY | < -0.25 |
| NMQSSTFMAKIT | < -0.25 |
| NMRSHRARCKV | < -0.25 |
| NMS | < -0.25 |
| NMSEFRAACGPNPLILSLVA | < -0.25 |
| NMSRVRRREIILRASTDGDP | < -0.25 |
| NNAWTSSMACAQGRLSPSTM | < -0.25 |
| NNGMGVWT | 0.37 |
| NNHIRHDGTGPWTNEQFTSA | < -0.25 |

| Substance | growth estimate |
| --- | --- |
| NNIH | -0.243 |
| NNILRENPVVVTSMSSLSAS | < -0.25 |
| NNIV | < -0.25 |
| NNLDFIQGDGPRSLNHT | < -0.25 |
| NNRSGTVFPSHWVNWGA | < -0.25 |
| NNTPGV | < -0.25 |
| NNVFRTR | < -0.25 |
| NNVKSAPAPSWPRYGAGHCP | < -0.25 |
| NNVLPAVRFPNNFVTSKKAA | < -0.25 |
| NNVTQKR | < -0.25 |
| NNYYGTNNDELGNGLTFGKT | < -0.25 |
| NPCVLGQSAYLI | < -0.25 |
| NPELASLSLDLKRTSGRKRL | < -0.25 |
| NPEVVGLGQEAERVAPSPWP | < -0.25 |
| NPFFGESRQDGLTRGS | < -0.25 |
| NPFWRTGVEQAQTDGGCMHN | < -0.25 |
| NPGGGARLEFLKYAKSR | < -0.25 |
| NPIGEFEISRRKKGLSKVVV | < -0.25 |
| NPKCSVGFQTSCNHVKTT | < -0.25 |
| NPLCILLITHWPHGYVVTGL | < -0.25 |
| NPLLNLTASPLVQHPLQIV | < -0.25 |
| NPLTLSYEPARVIGS | < -0.25 |
| NPPFVRRPTPRTRHFRCPAR | < -0.25 |
| NPPQGECSVPASTFSKGTAP | < -0.25 |
| NPQFLRSLRARHRPAGRDRP | < -0.25 |

| Substance | growth estimate |
| --- | --- |
| NPRCNRAVWPGVAEVGITLP | < -0.25 |
| NPSSCLNSRCRNRVVDAVCR | < -0.25 |
| NPTQTIYVLDWRMQQTLDAT | -0.228 |
| NPTSDLSAHA | < -0.25 |
| NPV | < -0.25 |
| NPVRPSVWDLK | < -0.25 |
| NPWKILVDVIYAASRGVNFS | < -0.25 |
| NPWSTREKGCQNFCQSLRRG | < -0.25 |
| NPYVFV | < -0.25 |
| NQENTRIHAGR | < -0.25 |
| NQGTLLYHGGPNCDNNIRTL | < -0.25 |
| NQHISDPRLDVSKGCFSRLS | < -0.25 |
| NQTRTVHTSLLE | < -0.25 |
| NRAWIRTLVCLGAFLCAQLR | < -0.25 |
| NRCRSRP | < -0.25 |
| NRDA | < -0.25 |
| NRDRLHVIEASLWSAAQRAR | < -0.25 |
| NREGWQHSVLGVATLQGYRH | < -0.25 |
| NREHDAVIKRDGGIG | < -0.25 |
| NRELNREHTRRKHLACKDAV | < -0.25 |
| NRGWDAHGIIVKCESRCRTR | < -0.25 |
| NRGWPAWLI | < -0.25 |
| NRICVRCCFLYRGRTS | < -0.25 |
| NRKWSMLG | < -0.25 |
| NRLAKRCLLRHSLCLLELP | < -0.25 |

| Substance | growth estimate |
| --- | --- |
| NRLGGRSC | < -0.25 |
| NRLTTTVRPYRIGQPTGSYH | < -0.25 |
| NRLVVLTTTSRFSPKGRLHA | < -0.25 |
| NRMHN | < -0.25 |
| NRMRRFLSAIQYLVDGVEHT | < -0.25 |
| NRQTSVIYLAGHSRSNVSGR | < -0.25 |
| NRR | < -0.25 |
| NRRPFKRNL | < -0.25 |
| NRRRFLCRFPRWKPWTVKSA | < -0.25 |
| NRRVGSARWR | < -0.25 |
| NRRWKAY | < -0.25 |
| NRSEPPWFYQCKSSAHMRQV | -0.237 |
| NRSFQSLVIKWKEVRDSDVH | < -0.25 |
| NRSLALVTPVRRNLNRPLRA | < -0.25 |
| NRSLTCEFDCYGVASTSRKE | < -0.25 |
| NRTGTRLSRRPMDHRPSDTF | < -0.25 |
| NRVFVIVSASLMGIHSP | < -0.25 |
| NRVSRILKVHKWRDHCCHSR | < -0.25 |
| NRY | -0.245 |
| NRYTWE | < -0.25 |
| NSAGHLLAR | < -0.25 |
| NSAHET | < -0.25 |
| NSAHSKGACAQIPLVPG | < -0.25 |
| NSAVHRLGTDRHFLA | < -0.25 |
| NSAWRRVDILSREGVS | < -0.25 |

| Substance | growth estimate |
| --- | --- |
| NSDTSGVMQERSVNLQLQLG | < -0.25 |
| NSEFGGVSGRKAVTESEESR | < -0.25 |
| NSFARTDKTLVAQLFDGSKL | < -0.25 |
| NSFEYDVMLSSGDSCKNGRV | < -0.25 |
| NSGPGGWTALT | < -0.25 |
| NSHRRRRRTGDRRTGVLGSS | < -0.25 |
| NSN | < -0.25 |
| NSNALTVSFAGKDFAGIATH | < -0.25 |
| NSPARVPATAG | < -0.25 |
| NSPKCTSRLEQAQRWNACLQ | < -0.25 |
| NSPNNAPPQRRTEFYAGFTA | < -0.25 |
| NSPQSNCSS | < -0.25 |
| NSRENKLFAHLELDIAAPTI | < -0.25 |
| NSRLQAFCRLYMTTTLLPPD | < -0.25 |
| NSRLRPGRT | -0.246 |
| NSRRECPSGVLRP | < -0.25 |
| NSSYALFR | < -0.25 |
| NSTHRDETR | < -0.25 |
| NSTPVT | < -0.25 |
| NSVALDAASGVHFSSITEGI | < -0.25 |
| NSVVINVN | < -0.25 |
| NSYATVGRANQPLAILYTRT | < -0.25 |
| NTEQFGRAFPAGMLG | < -0.25 |
| NTFKAWVGEGGIM | < -0.25 |
| NTGAHIIGANGG | < -0.25 |

| Substance | growth estimate |
| --- | --- |
| NTGELEIECDRILYPAISVQ | < -0.25 |
| NTGILSPGYDQAPSTF | < -0.25 |
| NTGIRVGWIKLMGKRGYAFG | < -0.25 |
| NTGNSGLDAGYILQHASTPR | < -0.25 |
| NTK | < -0.25 |
| NTKIYVRLVLVPASWVSFPS | < -0.25 |
| NTKQHSCISTRCFVSGRALC | < -0.25 |
| NTLER | < -0.25 |
| NTLPRIDA | < -0.25 |
| NTQIA | < -0.25 |
| NTRHEPAVPSSLLTLARAPA | < -0.25 |
| NTSVMCYWRAYIINDLSFK | < -0.25 |
| NTTDCDLEPTVCFVFGPPTI | < -0.25 |
| NTWVSG | < -0.25 |
| NVAGEQVFERPRPSIRT | < -0.25 |
| NVFADSFRET | < -0.25 |
| NVGETGR | < -0.25 |
| NVGVPSTSRAGSNLADSRT | < -0.25 |
| NVIRFGQRLDAYSTTKLMTR | < -0.25 |
| NVISVPGLRWACIPLLKGVE | < -0.25 |
| NVKDSCKRTTEWKASDLVTG | < -0.25 |
| NVLDPHMDGLANN | < -0.25 |
| NVLPEPPPYGLQLGHMC | < -0.25 |
| NVPPW | < -0.25 |
